Measured values taken from US10577387B1, “Platinum (II) complexes containing N-heterocyclic carbene ligand and pincer ligands, synthesis, and their applications in cancer treatment” (priority 2018, dated 2020).

Tested on: HeLa cells
Assay: Confocal fluorescence microscopy co-localization with organelle probes
Type: cell-based, human
Details: 1b 5 μM
Method: HeLa cells (2×10^5 cells) were seeded in a one chamber slide (Nalgene; Nunc) with culture medium (2 mL per well) and incubated at 37° C. in a humidified atmosphere of 5% CO2/95% air for 24 h. After treating with 1b (5 μM) for 1 h, ER-tracker™ red (1 μM), Mitotracker® deep red (50 nM) or Lysotracker® deep red (50 nM) were incubated with cells for 10 min, and then the cells were washed with PBS twice. Confocal fluorescence images were captured using a Carl Zeiss LSM510 Meta confocal microscope with the use of 488 and 543 nm/633 nm lasers for the excitation of complex 1b and red/deep red tracker respectively, under a Plan-Apochromat 63×1.40NA oil-immersion objective.

CCCCN1C=CN(CCCC)[CH]1[Pt]12[n]3c(c4ccccc4c3=Nc3cccc[n+]31)=Nc1cccc[n+]12 [Complex 1b]
Pearson's correlation coefficient for co-localization with Lysotracker: 0.55
Pearson's correlation coefficient for co-localization with Mitotracker: 0.45
